29 sequences from PubChem BioAssay AID1347423 (Functional Genomics Laboratory (NCATS/FGL), 2020) can be followed below.

Out of some 52,000 sequences screened, about 210 (0.4%) were called active.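 The calls were made as follows: active = gene whose silencing raises cell survival under the drug, median off-target-corrected z-score across its silencing RNAs 2 or more; inactive = the rest.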 Some of the results follow.

The nature of the assay: Resistance to Poly (ADP-Ribose) Polymerase inhibitor: Gene Identification via Genome-wide siRNA Screen. Conditions: mouse BRCA2 R2336H ES cells, olaparib, CellTiter-Glo viability; active compounds read high. In outline: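 Mouse BRCA2 R2336H ES cells were reverse-transfected with siRNA (20 nM final), treated at 48 h with 500 nM olaparib, and read by CellTiter-Glo after 72 h. Scores: MAD-based z per siRNA, median per gene, seed off-target correction.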
In general terms: ATP-based viability assays read luminescence as a measure of living cells.
In the case of GUGCAGUUGUGACAAUAUATT against Pramel3, the z-score is inactive: -0.703.

As to “GCAGAGUCUGGAUCAACAUTT against 4732418C07Rik”, the z-score was inactive: -0.745. To CGAUUGUAUAGCUUUUAAGTT against Gfpt2 belongs inactive: 0.84. For CGAAAUGACAGUGUUAUUCTT against Mpl, the z-score is inactive: 2.17. To “GGACUGCUGAACUUGCUCATT against 1810010N17Rik” belongs inactive: 0.529. Take “GGGCCUUCACACUUCACUUTT against 2310016E02Rik”: the z-score is inactive: 0.51. For GCGUGGAUAACACUGUUGUTT against Hira, the z-score was inactive: -0.103. In the case of “GGUCCUAUCUUCCUAUCAUTT against D130058I21Rik”, the z-score was inactive: 1.64. For the sequence GACGAAUAUCAUCUCACACTT against Olfr875, the z-score is inactive: 0.619.

As for “GGUUCAUUGUCUGAGAUCATT against Gt(ROSA)26asSor”, the z-score was inactive: 1.51. With “GGAGCUGAGGAAUUGAUCCTT against 1700121L12Rik”, the z-score was inactive: -0.704. Then GGAGCUCUUUGACUUCUUGTT against Uqcrh, with inactive: 0.582; and GCUUAAUGAACUGUCCUCUTT against Agc1, with inactive: 2.42.

In the case of GGCAUUUAAUAUCAGGUCATT against Zfp62, the z-score is inactive: -0.367. Regarding GCCAAAGUAGCAUUAGUGATT against AI317237, the z-score is inactive: 1.12.

As to GCGUGAAAAUGGAUAUCUUTT against Stab1, the z-score was inactive: 0.508.

With GGAAAAGAUGCCUGUAUUUTT against Sgcd, the z-score is inactive: -0.224. For CGGUGAUCAAAGAUAAGAATT against Zfp95, the z-score is inactive: 0.407. As for “GGAGAUCAAAGAAUCUUGGTT against 6330406L22Rik”, the z-score is inactive: 1.58. Consider GGAAGCCAUCUUUAUCCUGTT against Pole4, for which the z-score is inactive: 1.32.

Turning to GGCAGCAAAGUCAAGAUGUTT against Msgn1, the z-score was inactive: -0.17. Turning to GGGUUAAUGCAUCAUUUGATT against Mef2d, the z-score is inactive: 1.42.

Turning to GGCCCAGGAUAUUUUAGUUTT against Gm574, the z-score is inactive: 1.01. Regarding GGAUGUUAAUGGAUUCACATT against Ptprt, the z-score is inactive: -0.779.

On to CCAAGACUGUGACAAGUUUTT against Ctsz, for which the z-score was inactive: 0.254.

For the sequence GGACAUUAUCAAGUUUCUGTT against Fkbp3, the z-score is inactive: 0.237. As for “GGUGUGGGAUUUCUACACUTT against B230113C15Rik”, the z-score is inactive: 1.13. Regarding “GACAGAAAUAUAGACUCGATT against 4930418G15Rik”, the z-score was inactive: -2.57. To GGGAACAAGACAACACAGCTT against Adam11 belongs inactive: 0.0583.
